Reference: article PMC1215486
These are yes or no findings as the source states them, for the method shown. Binding seen in cells or lysates may run through a third protein. Some results given as binding are weak or reduced against the parent protein; the word gives no strength. For some assays here: Where a sequence is shown, tags or fusion partners need not be part of it.

Sequences of proteins named here, by UniProt entry; tags and fusion partners are left off. Residues count along the entry.
UniProt O15031, residues 20-1838: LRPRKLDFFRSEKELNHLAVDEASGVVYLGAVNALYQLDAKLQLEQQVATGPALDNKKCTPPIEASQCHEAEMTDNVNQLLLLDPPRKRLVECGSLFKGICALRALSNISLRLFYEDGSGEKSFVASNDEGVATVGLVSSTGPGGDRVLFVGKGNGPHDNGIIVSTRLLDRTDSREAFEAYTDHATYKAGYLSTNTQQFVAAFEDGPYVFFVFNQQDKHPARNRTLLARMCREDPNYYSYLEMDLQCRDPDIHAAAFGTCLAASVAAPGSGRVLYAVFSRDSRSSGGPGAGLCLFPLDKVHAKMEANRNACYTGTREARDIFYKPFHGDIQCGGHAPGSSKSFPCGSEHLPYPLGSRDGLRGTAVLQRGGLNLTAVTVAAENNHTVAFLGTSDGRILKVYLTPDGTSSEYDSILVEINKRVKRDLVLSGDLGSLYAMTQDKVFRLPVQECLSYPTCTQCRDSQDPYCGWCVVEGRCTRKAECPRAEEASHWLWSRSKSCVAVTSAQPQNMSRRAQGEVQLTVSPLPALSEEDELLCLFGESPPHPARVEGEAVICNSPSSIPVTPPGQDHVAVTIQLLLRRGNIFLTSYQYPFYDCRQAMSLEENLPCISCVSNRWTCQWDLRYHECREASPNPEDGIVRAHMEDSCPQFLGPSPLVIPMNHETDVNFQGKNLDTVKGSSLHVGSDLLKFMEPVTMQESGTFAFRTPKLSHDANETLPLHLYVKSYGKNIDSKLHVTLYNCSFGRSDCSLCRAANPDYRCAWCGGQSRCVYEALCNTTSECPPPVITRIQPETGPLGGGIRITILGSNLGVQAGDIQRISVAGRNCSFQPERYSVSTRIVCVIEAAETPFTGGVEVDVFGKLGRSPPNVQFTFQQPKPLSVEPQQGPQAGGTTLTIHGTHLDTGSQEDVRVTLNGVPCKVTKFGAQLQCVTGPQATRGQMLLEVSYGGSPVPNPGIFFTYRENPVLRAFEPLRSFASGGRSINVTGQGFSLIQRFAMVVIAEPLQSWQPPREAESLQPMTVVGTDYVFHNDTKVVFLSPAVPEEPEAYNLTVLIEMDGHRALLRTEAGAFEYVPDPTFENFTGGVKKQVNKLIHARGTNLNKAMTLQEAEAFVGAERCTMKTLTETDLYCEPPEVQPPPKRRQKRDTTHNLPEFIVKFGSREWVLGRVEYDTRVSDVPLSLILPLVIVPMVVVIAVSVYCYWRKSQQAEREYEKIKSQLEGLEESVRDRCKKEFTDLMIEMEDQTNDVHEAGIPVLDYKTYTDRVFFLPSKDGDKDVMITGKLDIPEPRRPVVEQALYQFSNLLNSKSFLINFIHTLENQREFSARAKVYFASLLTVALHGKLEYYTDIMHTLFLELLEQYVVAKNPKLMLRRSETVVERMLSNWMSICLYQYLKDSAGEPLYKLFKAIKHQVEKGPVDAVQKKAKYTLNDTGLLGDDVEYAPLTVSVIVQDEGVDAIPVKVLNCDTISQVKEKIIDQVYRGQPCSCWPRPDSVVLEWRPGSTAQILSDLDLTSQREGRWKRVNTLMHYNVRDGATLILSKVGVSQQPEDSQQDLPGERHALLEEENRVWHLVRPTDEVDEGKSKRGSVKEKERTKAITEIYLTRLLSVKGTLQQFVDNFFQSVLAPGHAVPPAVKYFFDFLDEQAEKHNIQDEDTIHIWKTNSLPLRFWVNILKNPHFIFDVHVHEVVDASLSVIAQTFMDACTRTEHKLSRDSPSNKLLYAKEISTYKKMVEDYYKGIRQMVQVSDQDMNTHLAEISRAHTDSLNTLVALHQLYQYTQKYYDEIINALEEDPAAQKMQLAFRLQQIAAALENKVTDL
UniProt Q9UIW2, residues 27-1896: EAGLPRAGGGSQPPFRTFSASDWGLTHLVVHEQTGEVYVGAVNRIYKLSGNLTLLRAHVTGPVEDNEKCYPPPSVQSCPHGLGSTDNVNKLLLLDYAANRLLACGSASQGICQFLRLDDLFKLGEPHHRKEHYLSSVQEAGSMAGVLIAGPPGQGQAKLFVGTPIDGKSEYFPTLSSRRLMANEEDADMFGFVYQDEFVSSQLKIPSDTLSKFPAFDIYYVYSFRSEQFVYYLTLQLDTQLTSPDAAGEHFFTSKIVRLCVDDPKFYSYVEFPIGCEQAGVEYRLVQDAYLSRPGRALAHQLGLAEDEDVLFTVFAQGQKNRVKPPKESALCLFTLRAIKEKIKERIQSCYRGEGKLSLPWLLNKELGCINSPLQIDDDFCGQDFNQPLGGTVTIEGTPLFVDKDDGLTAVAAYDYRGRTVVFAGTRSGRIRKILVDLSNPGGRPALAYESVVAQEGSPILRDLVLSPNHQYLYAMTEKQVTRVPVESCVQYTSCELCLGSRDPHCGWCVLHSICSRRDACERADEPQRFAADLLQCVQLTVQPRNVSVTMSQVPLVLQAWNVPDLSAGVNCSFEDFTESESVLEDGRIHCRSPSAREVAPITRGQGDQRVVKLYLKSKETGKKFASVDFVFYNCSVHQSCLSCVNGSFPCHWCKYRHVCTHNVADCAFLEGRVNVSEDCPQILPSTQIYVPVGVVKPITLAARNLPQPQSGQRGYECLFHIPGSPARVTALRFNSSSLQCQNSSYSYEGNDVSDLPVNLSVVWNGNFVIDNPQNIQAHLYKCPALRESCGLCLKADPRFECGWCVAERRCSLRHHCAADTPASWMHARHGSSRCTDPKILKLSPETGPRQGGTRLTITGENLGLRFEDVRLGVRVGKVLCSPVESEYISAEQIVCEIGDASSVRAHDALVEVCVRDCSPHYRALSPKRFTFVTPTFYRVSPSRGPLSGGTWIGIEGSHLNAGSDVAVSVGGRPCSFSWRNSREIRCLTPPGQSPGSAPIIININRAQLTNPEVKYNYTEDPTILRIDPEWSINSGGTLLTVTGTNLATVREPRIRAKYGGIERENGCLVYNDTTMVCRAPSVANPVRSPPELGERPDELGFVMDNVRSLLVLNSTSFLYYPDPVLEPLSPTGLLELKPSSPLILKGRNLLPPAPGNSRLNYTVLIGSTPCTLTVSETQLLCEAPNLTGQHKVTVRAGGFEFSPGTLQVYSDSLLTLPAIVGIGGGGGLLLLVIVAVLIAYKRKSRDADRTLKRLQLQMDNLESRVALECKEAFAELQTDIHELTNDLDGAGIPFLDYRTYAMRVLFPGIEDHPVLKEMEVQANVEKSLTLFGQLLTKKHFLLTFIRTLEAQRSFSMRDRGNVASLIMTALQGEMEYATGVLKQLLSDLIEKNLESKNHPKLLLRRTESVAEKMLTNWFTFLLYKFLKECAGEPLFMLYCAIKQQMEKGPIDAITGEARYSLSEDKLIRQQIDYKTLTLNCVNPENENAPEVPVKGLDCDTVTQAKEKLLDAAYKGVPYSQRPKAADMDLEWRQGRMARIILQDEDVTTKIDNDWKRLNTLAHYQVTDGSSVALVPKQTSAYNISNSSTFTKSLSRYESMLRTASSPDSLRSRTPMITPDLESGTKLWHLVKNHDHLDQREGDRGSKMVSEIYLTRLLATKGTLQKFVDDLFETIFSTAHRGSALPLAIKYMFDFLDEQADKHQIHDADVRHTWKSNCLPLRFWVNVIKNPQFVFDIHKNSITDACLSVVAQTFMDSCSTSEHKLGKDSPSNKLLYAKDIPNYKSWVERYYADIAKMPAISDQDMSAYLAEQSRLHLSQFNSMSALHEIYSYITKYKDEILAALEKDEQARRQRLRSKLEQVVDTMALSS
UniProt O43157, residues 20-2135: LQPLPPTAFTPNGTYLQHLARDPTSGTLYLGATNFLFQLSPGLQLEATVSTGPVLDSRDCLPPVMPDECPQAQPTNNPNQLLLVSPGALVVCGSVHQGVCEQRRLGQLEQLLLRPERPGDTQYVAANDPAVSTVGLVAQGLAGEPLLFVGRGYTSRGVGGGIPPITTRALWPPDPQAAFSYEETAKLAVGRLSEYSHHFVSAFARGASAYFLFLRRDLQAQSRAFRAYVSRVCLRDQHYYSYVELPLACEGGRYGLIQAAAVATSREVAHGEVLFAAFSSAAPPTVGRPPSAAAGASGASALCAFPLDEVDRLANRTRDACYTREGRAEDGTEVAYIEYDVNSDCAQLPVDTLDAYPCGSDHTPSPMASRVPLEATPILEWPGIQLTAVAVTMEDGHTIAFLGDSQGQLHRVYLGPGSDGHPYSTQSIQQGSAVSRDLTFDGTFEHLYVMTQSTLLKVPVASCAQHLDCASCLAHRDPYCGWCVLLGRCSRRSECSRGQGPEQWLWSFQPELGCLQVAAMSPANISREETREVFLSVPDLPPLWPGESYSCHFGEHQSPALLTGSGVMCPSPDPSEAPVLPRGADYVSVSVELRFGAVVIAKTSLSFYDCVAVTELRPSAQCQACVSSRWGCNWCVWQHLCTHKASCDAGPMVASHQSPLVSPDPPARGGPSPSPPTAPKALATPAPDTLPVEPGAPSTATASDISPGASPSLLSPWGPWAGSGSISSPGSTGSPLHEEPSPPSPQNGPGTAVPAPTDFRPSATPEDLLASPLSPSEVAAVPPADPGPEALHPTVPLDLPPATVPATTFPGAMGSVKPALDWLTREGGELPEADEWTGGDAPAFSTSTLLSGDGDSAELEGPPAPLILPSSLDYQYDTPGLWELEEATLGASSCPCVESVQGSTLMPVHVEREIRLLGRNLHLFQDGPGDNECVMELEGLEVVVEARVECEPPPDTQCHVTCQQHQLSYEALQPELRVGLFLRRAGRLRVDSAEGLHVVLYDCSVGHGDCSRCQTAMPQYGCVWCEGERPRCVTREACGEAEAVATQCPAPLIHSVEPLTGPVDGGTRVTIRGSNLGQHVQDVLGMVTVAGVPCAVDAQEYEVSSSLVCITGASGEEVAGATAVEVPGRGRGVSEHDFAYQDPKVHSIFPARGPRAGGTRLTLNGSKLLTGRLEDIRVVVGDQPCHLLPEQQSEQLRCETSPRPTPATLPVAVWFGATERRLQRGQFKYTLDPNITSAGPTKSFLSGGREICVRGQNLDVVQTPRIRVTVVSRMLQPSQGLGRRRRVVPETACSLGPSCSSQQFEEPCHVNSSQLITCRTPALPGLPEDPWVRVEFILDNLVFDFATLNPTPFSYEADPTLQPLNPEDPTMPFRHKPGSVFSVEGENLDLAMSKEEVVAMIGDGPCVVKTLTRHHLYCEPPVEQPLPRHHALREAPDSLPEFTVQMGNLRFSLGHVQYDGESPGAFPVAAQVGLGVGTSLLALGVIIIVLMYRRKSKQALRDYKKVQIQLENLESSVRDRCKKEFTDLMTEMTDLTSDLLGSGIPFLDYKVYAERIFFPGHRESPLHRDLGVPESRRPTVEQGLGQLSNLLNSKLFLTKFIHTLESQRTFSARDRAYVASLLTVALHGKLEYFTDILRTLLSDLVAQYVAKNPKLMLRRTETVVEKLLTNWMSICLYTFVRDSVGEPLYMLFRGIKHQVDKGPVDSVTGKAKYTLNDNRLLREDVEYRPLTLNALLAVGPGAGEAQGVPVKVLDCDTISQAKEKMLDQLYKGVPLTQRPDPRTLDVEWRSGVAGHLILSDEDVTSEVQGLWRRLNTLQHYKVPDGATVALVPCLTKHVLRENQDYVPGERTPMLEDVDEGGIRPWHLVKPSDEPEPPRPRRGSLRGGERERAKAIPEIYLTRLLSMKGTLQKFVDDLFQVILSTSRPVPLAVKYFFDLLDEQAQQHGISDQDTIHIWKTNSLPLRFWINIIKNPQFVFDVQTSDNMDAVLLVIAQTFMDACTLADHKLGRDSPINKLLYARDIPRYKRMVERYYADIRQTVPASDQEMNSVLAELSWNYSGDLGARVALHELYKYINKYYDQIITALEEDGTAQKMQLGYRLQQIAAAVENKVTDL

T1: FLAG-tagged full-length human Rin (pFLAG/Rin) (human) (UniProt Q99578)
T1 sequence: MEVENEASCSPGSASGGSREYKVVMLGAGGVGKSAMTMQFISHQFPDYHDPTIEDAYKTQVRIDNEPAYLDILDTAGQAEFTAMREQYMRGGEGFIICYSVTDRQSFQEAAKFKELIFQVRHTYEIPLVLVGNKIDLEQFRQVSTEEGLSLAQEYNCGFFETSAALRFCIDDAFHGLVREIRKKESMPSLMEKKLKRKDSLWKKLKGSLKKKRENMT

T2: B3Δic FLAG (pFLAG/B3Δic), human plexin B3 lacking the intracellular part (human) (UniProt Q9ULL4)
T2 sequence: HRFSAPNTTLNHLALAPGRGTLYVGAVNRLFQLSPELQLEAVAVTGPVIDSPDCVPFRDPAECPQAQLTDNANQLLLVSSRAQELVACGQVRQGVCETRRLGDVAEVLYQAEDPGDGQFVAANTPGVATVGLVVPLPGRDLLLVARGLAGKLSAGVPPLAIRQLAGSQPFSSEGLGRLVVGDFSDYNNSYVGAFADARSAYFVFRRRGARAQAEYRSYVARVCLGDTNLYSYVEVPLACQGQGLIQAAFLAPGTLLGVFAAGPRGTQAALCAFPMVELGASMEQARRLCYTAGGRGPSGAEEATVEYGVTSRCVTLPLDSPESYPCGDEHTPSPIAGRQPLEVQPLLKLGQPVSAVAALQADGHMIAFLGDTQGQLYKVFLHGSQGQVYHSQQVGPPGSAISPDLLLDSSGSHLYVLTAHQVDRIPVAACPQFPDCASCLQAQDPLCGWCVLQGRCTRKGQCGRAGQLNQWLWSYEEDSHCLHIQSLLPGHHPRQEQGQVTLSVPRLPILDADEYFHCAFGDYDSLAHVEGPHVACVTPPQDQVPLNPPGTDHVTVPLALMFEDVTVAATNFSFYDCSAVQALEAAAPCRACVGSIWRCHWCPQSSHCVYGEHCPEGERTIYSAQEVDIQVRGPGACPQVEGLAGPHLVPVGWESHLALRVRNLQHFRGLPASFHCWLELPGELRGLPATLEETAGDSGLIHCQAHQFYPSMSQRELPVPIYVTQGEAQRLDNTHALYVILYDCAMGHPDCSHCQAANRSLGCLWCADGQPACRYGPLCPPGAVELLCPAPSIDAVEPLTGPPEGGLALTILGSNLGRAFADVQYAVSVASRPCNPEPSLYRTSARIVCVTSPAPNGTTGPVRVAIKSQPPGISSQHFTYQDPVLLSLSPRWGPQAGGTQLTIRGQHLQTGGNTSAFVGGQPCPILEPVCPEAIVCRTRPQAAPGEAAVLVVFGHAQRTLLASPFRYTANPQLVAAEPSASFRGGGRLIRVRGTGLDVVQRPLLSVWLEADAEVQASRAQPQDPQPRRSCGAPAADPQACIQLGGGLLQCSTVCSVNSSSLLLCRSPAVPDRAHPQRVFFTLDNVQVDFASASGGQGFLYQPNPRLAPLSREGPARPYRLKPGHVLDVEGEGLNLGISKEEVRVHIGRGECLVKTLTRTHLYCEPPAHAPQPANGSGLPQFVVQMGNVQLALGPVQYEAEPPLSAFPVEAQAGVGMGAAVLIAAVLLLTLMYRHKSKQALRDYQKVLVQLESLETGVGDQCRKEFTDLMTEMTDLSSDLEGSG

T3: B3sema HA (pcDNA3.1/B3semaHA), HA-tagged sema domain of human plexin B3 (human) (UniProt Q9ULL4)
T3 sequence: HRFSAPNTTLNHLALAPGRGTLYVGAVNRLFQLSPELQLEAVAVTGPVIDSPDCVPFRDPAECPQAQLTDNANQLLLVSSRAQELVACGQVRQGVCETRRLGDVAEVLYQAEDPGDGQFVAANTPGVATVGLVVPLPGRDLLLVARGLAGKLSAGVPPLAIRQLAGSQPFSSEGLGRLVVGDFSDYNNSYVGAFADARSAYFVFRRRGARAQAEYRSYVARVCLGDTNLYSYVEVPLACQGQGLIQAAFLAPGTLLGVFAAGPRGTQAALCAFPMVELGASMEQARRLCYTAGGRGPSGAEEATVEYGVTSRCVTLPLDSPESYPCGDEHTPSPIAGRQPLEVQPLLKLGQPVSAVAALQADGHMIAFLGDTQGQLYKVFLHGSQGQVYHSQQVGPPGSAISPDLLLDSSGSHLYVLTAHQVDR


Assays:
[1] = target: myc-tagged full-length human plexin B3 (pSecTag2B/B3) (human) (UniProt Q9ULL4); test: co-IP; COS-7 cells co-transfected, lysed 30 h after transfection in 20 mM tris-HCl pH 7.5, 150 mM NaCl, 1% TritonX-100; IP with pAbB3-B, anti-myc, anti-FLAG, anti-HA or anti-Rin and protein-A agarose at 4°C; washes with 500 mM NaCl, 0,1% TritonX-100; Western blot
[2] = target: non-tagged full-length human plexin B3 (pIRES/B3) (human) (UniProt Q9ULL4); test: as above
[3] = target: T1, FLAG-tagged full-length human Rin (pFLAG/Rin) (human); test: as above
[4] = target: T2, B3Δic FLAG (pFLAG/B3Δic), human plexin B3 lacking the intracellular part (human); test: co-IP; data not shown: human B3 deletion constructs with V5-tagged mouse B3 lacking most of its intracellular part
[5] = target: T3, B3sema HA (pcDNA3.1/B3semaHA), HA-tagged sema domain of human plexin B3 (human); test: co-IP; COS-7 cells co-transfected, lysed 30 h after transfection in 20 mM tris-HCl pH 7.5, 150 mM NaCl, 1% TritonX-100; IP with pAbB3-B, anti-myc, anti-FLAG, anti-HA or anti-Rin and protein-A agarose at 4°C; washes with 500 mM NaCl, 0,1% TritonX-100; Western blot

binding [1]	Molecule	binding [2]	further results
binds	EGFP-tagged full-length human plexin B3 (pEGFP-N1/B3) (from UniProt Q9ULL4 45-1909) (receptor)		
	FLAG-tagged full-length human plexin B2 (pFLAG/B2) (from UniProt O15031 20-1838) (receptor)	no binding	binding [3]: no binding
	VSV-tagged full-length human plexin A1 (pcDNAVSV/A1) (from UniProt Q9UIW2 27-1896) (receptor)	no binding	
	VSV-tagged full-length human plexin B1 (pcDNAVSV/B1) (from UniProt O43157 20-2135) (receptor)	no binding	
	non-tagged full-length human plexin B3 (pIRES/B3) (from UniProt Q9ULL4 45-1909) (receptor)		binding [3]: binds
binds	B3Δic FLAG (pFLAG/B3Δic), human plexin B3 lacking the intracellular part (domain or fragment, UniProt Q9ULL4 45-1327) HRFSAPNTTLNHLALAPGRGTLYVGAVNRLFQLSPELQLEAVAVTGPVIDSPDCVPFRDPAECPQAQLTDNANQLLLVSSRAQELVACGQVRQGVCETRRLGDVAEVLYQAEDPGDGQFVAANTPGVATVGLVVPLPGRDLLLVARGLAGKLSAGVPPLAIRQLAGSQPFSSEGLGRLVVGDFSDYNNSYVGAFADARSAYFVFRRRGARAQAEYRSYVARVCLGDTNLYSYVEVPLACQGQGLIQAAFLAPGTLLGVFAAGPRGTQAALCAFPMVELGASMEQARRLCYTAGGRGPSGAEEATVEYGVTSRCVTLPLDSPESYPCGDEHTPSPIAGRQPLEVQPLLKLGQPVSAVAALQADGHMIAFLGDTQGQLYKVFLHGSQGQVYHSQQVGPPGSAISPDLLLDSSGSHLYVLTAHQVDRIPVAACPQFPDCASCLQAQDPLCGWCVLQGRCTRKGQCGRAGQLNQWLWSYEEDSHCLHIQSLLPGHHPRQEQGQVTLSVPRLPILDADEYFHCAFGDYDSLAHVEGPHVACVTPPQDQVPLNPPGTDHVTVPLALMFEDVTVAATNFSFYDCSAVQALEAAAPCRACVGSIWRCHWCPQSSHCVYGEHCPEGERTIYSAQEVDIQVRGPGACPQVEGLAGPHLVPVGWESHLALRVRNLQHFRGLPASFHCWLELPGELRGLPATLEETAGDSGLIHCQAHQFYPSMSQRELPVPIYVTQGEAQRLDNTHALYVILYDCAMGHPDCSHCQAANRSLGCLWCADGQPACRYGPLCPPGAVELLCPAPSIDAVEPLTGPPEGGLALTILGSNLGRAFADVQYAVSVASRPCNPEPSLYRTSARIVCVTSPAPNGTTGPVRVAIKSQPPGISSQHFTYQDPVLLSLSPRWGPQAGGTQLTIRGQHLQTGGNTSAFVGGQPCPILEPVCPEAIVCRTRPQAAPGEAAVLVVFGHAQRTLLASPFRYTANPQLVAAEPSASFRGGGRLIRVRGTGLDVVQRPLLSVWLEADAEVQASRAQPQDPQPRRSCGAPAADPQACIQLGGGLLQCSTVCSVNSSSLLLCRSPAVPDRAHPQRVFFTLDNVQVDFASASGGQGFLYQPNPRLAPLSREGPARPYRLKPGHVLDVEGEGLNLGISKEEVRVHIGRGECLVKTLTRTHLYCEPPAHAPQPANGSGLPQFVVQMGNVQLALGPVQYEAEPPLSAFPVEAQAGVGMGAAVLIAAVLLLTLMYRHKSKQALRDYQKVLVQLESLETGVGDQCRKEFTDLMTEMTDLSSDLEGSG		
binds	C-terminally V5-tagged truncated mouse plexin B3 (aa 1-1,252), lacking most of its intracellular part (pcDNA/mB3V5) (domain or fragment, UniProt Q9QY40 37-1252) FSVPNTSFNHLVLAPDQGKLYVGAVNHLFQLSPELKMESVAVTGPVIDSPDCVPFRDLAECPQAQLTDNANQLLLVSSRTQELVACGQVKQGVCEKRRLGDVTQVLYQAEDPGDGQFVAANTLGVTTVGLVVPLPGRDLLLVARGLAGKLSAGVPPLTVRQLAGPQPFSSEGLGRLVVGDFSDYNNSYVGAFSDAHSAYFVFRRRGARAQTEYRSYVARVCLRDVNLYSYVEMPLTCHGQGLIQAAFLTPDTLLGAFSAGTSQAQAALCAFPLADLDRSMEQARRLCYTTGGQGPSGMEEATVEYGVTSRCVTLPPDSPESYPCGDEHTPSPIAGRQPLEAQPLLQLGQSISAVAALQTDGHTIAFLGDTQGQLHKVFLNSSHGQVYHSQQVGPPGSAISPDLLVDSNGDHLYVLTAQQVDRILVAACPQFPNCTTCLQARDPLCGWCILQGRCTRRGECGRAAQPNHWLWSYEDNHCPYIQSLLPAQHPRQEQGQIILSVPRLPTLAMDEYFHCAFGGYNSLAQVEEPHVVCTTPPQDQMPPNPPGSDHVTLPLALMFEDVVLTATTFSFYDCSAVQALEVAAPCRACVSSLWRCHWCPQSSHCIYGEHCPEGEKAVYSAQEVDILVRGPEACPQVEGLASPQLVPVGWESHVTLHIQNLHYFQGLPALYHCWLELPGKLQKLPASLEETSRDSGLIHCQAQQFYPSMSQWELPVPIYVTRGEIQRLDNAGDLHVTLYDCAMGHPDCSHCQAANGSLSCLWCGDGQPACRYGPLCPPGAVEQLCPIPSIDVIEPLTGPPEGGLAITILGSNLGQAFNDVRNAVTVAGQPCNPDPSLYRISARIVCVTSPAPNGTAGPVQVAIKSRPPGISTQNFTYQDPVLLSLNPQWGPQAGGTQLTIHGQYLQTGGNISVFVGDQPCPIQEPVCPEAIICHTMPQTEPGEAVVLIVFGHVERKLLTTPFRYTANPQLVEAEPSVSFRGGGRVIRVRGTGLDVVWQPLLSVWLEDEPKVKALGVQAQDANPRRSCGAPAADPQACIHLESGLLQCSTLCSVNSSSLLLCHSPAVPDGALPKRVFFALDNMQVDFASASGGQGFLYQPNPRLAPLSHEGITHPYHLKPGHVLDVEGEGLNLGISKEEVQVHIGDGECLVKTLTLTHLYCEPPPQAPQPTNGSGTLPQFVVQMGNLRLALGPVQYEAESMMSTFPVEAQLGLGMGA		binding [4]: binds
binds	B3sema V5 (pcDNA3.1/B3sema), V5-tagged sema domain of human plexin B3 (domain or fragment, UniProt Q9ULL4 45-468) HRFSAPNTTLNHLALAPGRGTLYVGAVNRLFQLSPELQLEAVAVTGPVIDSPDCVPFRDPAECPQAQLTDNANQLLLVSSRAQELVACGQVRQGVCETRRLGDVAEVLYQAEDPGDGQFVAANTPGVATVGLVVPLPGRDLLLVARGLAGKLSAGVPPLAIRQLAGSQPFSSEGLGRLVVGDFSDYNNSYVGAFADARSAYFVFRRRGARAQAEYRSYVARVCLGDTNLYSYVEVPLACQGQGLIQAAFLAPGTLLGVFAAGPRGTQAALCAFPMVELGASMEQARRLCYTAGGRGPSGAEEATVEYGVTSRCVTLPLDSPESYPCGDEHTPSPIAGRQPLEVQPLLKLGQPVSAVAALQADGHMIAFLGDTQGQLYKVFLHGSQGQVYHSQQVGPPGSAISPDLLLDSSGSHLYVLTAHQVDR		binding [5]: binds
